Measurements reported in US20070105158A1, “Recombined cell system for deorphanizing g protein-coupled receptors” (Deutsches Institut fur Ernahrungsforschung-Stiftun, priority 2003, published 2007).
For at least one compound, name, drawing or mass did not settle the structure.

Biological target: T1, rho-tag(39)-Olfr49 (Mus musculus, UniProt Q9Z1V0)
T1 construct: PCR-amplified the full-length coding regions of mouse Olfr49 (1-C6, NM010991); rho-tag(39): first 39 amino acids of bovine rhodopsin (N); expressed in transfected cells
T1 sequence (Q9Z1V0 1-313): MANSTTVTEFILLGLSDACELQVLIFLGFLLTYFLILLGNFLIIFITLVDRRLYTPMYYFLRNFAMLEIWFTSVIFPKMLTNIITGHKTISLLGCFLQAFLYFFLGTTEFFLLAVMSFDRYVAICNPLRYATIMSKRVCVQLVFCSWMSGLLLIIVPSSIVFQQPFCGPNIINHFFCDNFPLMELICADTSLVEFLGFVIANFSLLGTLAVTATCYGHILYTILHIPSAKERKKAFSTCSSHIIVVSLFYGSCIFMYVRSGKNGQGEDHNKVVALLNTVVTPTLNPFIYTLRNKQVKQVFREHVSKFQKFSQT
Type: cell-based
Details: cells without hG-alpha-olf, compared to cells without pre-treatment; (−)citronellal 10 μM; forskolin 2.5 μM, thapsigargin 1 μM
Experimental: After 40 hours, the cells were pre-incubated with IBMX (100 μM, 30 min) and exposed to (−)citronellal or isoproterenol (2 min). The pre-stimulation with forskolin was generally omitted.
The inventors tested the possibility to follow an increase in cGMP by transfecting of the rat particular guanylyl cyclase type B (GC-B) into HeLa-Cx43/CNGA2 cells, for which the C type natriuretic peptide (CNP) is the known agonist (Lucas et al., 2000). […] The quantitative comparison of the relative potencies of the agonists by determining of their EC50 values is a standard method in the GPCR and agonist-classification.

Question: Which “Effect of pre-treatment on (−)citronellal-induced cAMP production” value does the source give for C=C[C@@]1(C)CC(=O)[C@]2(O)[C@@]3(C)[C@@H](O)CCC(C)(C)[C@@H]3[C@H](O)[C@H](OC(C)=O)[C@@]2(C)O1 [forskolin] here?
Answer: The value was “significantly increased”.
